PubChem BioAssay AID1053209 – Peter MacCallum Cancer Centre – 2014
Purpose: 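Gene losses that combine with doxorubicin to kill mouse bone cancer cells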 (follow-up of hits). Cell system: mouse primary osteosarcoma cells. Reagent: single siRNA against mouse genes, 25 nM (text also states 40 nM). Timing: about 120 h (48 h before drug, then 72 h with drug). Challenge: doxorubicin 100 nM (about IC30-40), added 48 h after transfection, for 72 h. Measurement: 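ATP-based luminescent viability, with or without doxorubicin, relative to non-targeting control NT1, mean of two replicates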. Reading the numbers: viability with doxorubicin, vs NT1: higher = more viable cells under doxorubicin; viability ratio, doxorubicin over no drug: higher = less sensitisation to doxorubicin; viability without drug, vs NT1: higher = more viable cells without drug. Call rule: 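Active when doxorubicin viability is at most 0.7 of NT1 and drug-free viability lies between 0.7 and 1.1, class LC dox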.
Shown is a random part of about 1,580 reagents. In the full data, 207 (13%) got an active call. 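Rows are single siRNAs; four siRNAs per gene were tested, a gene counting as confirmed only when at least two agree.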

no.	Target gene	PubChem SID	combined effect class	viability with doxorubicin, vs NT1	viability ratio, doxorubicin over no drug	viability without drug, vs NT1	call
1	Bak1 (BCL2-antagonist/killer 1)	SID152271712	high viability only with doxorubicin	1.12	1.15	0.97	inactive
2	Bak1 (BCL2-antagonist/killer 1)	SID152280759	normal viability with and without drug	0.9	0.97	0.93	inactive
3	Bak1 (BCL2-antagonist/killer 1)	SID152307470	normal viability with and without drug	1.04	1.07	0.97	inactive
4	Bak1 (BCL2-antagonist/killer 1)	SID152312424	high viability only with doxorubicin	1.16	1.18	0.98	inactive
5	Rpl7 (ribosomal protein L7)	SID152277213	low viability with and without drug	0.34	0.62	0.55	inactive
6	Rpl7 (ribosomal protein L7)	SID152290941	low viability with and without drug	0.18	0.56	0.32	inactive
7	Rpl7 (ribosomal protein L7)	SID152293395	low viability with and without drug	0.24	0.63	0.38	inactive
8	Rpl7 (ribosomal protein L7)	SID152325351	low viability with and without drug	0.23	0.61	0.38	inactive
9	Vcp (valosin containing protein)	SID152263251	low viability only with doxorubicin; normal without drug	0.69	0.77	0.9	active
10	Vcp (valosin containing protein)	SID152274616	normal viability with and without drug	0.74	0.82	0.9	inactive
11	Vcp (valosin containing protein)	SID152321468	low viability with and without drug	0.34	0.54	0.63	inactive
12	Vcp (valosin containing protein)	SID152335042	low viability only with doxorubicin; normal without drug	0.36	0.46	0.78	active
13	Psma3 (proteasome subunit alpha 3)	SID152284410	low viability with and without drug	0.16	0.27	0.59	inactive
14	Psma3 (proteasome subunit alpha 3)	SID152300779	low viability with and without drug	0.29	0.41	0.7	inactive
15	Psma3 (proteasome subunit alpha 3)	SID152332081	low viability with and without drug	0.31	0.5	0.62	inactive
16	Psma3 (proteasome subunit alpha 3)	SID152336588	low viability with and without drug	0.24	0.77	0.31	inactive
17	Sf3b6 (splicing factor 3B, subunit 6)	SID152307876	low viability with and without drug	0.25	0.74	0.34	inactive
18	Sf3b6 (splicing factor 3B, subunit 6)	SID152315787	low viability with and without drug	0.38	0.66	0.58	inactive
19	Sf3b6 (splicing factor 3B, subunit 6)	SID152321388	low viability with and without drug	0.15	0.42	0.36	inactive
20	Sf3b6 (splicing factor 3B, subunit 6)	SID152325311	normal viability with and without drug	1.03	1.08	0.95	inactive
21	Eif4a3 (eukaryotic translation initiation factor 4A3)	SID152307519	low viability only with doxorubicin; normal without drug	0.61	0.61	1	active
22	Eif4a3 (eukaryotic translation initiation factor 4A3)	SID152312335	low viability with and without drug	0.14	0.25	0.57	inactive
23	Eif4a3 (eukaryotic translation initiation factor 4A3)	SID152327617	low viability only with doxorubicin; normal without drug	0.38	0.48	0.8	active
24	Eif4a3 (eukaryotic translation initiation factor 4A3)	SID152335310	low viability with and without drug	0.25	0.43	0.58	inactive
25	Thoc7 (THO complex 7)	SID152299746	normal viability with and without drug	1.02	0.98	1.04	inactive
26	Thoc7 (THO complex 7)	SID152302916	low viability only with doxorubicin; normal without drug	0.67	0.74	0.91	active
27	Thoc7 (THO complex 7)	SID193126363	normal viability with and without drug	0.83	0.88	0.94	inactive
28	Thoc7 (THO complex 7)	SID193126372	normal viability with and without drug	1.06	1.14	0.93	inactive
29	Ebna1bp2 (EBNA1 binding protein 2)	SID152267310	low viability with and without drug	0.54	1.04	0.52	inactive
30	Ebna1bp2 (EBNA1 binding protein 2)	SID152281467	low viability with and without drug	0.63	1.21	0.52	inactive
31	Ebna1bp2 (EBNA1 binding protein 2)	SID152310117	low viability only with doxorubicin; normal without drug	0.5	0.65	0.77	active
32	Ebna1bp2 (EBNA1 binding protein 2)	SID152339874	low viability only without drug	0.77	1.13	0.68	inactive
33	Smc1a (structural maintenance of chromosomes 1A)	SID152272964	normal viability with and without drug	0.78	0.91	0.86	inactive
34	Smc1a (structural maintenance of chromosomes 1A)	SID152276339	low viability only with doxorubicin; normal without drug	0.64	0.77	0.83	active
35	Smc1a (structural maintenance of chromosomes 1A)	SID152325349	low viability only with doxorubicin; normal without drug	0.61	0.69	0.88	active
36	Smc1a (structural maintenance of chromosomes 1A)	SID152332964	normal viability with and without drug	0.84	0.97	0.87	inactive
37	Bop1 (block of proliferation 1)	SID152273853	normal viability with and without drug	0.85	1.15	0.74	inactive
38	Bop1 (block of proliferation 1)	SID152284123	normal viability with and without drug	0.87	1.02	0.85	inactive
39	Bop1 (block of proliferation 1)	SID152331845	normal viability with and without drug	0.72	0.8	0.9	inactive
40	Bop1 (block of proliferation 1)	SID152334190	low viability only without drug	0.71	1.04	0.68	inactive

Laid out differently: 4 of the entries above.
Target gene | PubChem SID | combined effect class | viability with doxorubicin, vs NT1 | viability ratio, doxorubicin over no drug | viability without drug, vs NT1 | call
Vcp (valosin containing protein) | SID152335042 | low viability only with doxorubicin; normal without drug | 0.36 | 0.46 | 0.78 | active
Psma3 (proteasome subunit alpha 3) | SID152284410 | low viability with and without drug | 0.16 | 0.27 | 0.59 | inactive
Psma3 (proteasome subunit alpha 3) | SID152300779 | low viability with and without drug | 0.29 | 0.41 | 0.7 | inactive
Psma3 (proteasome subunit alpha 3) | SID152332081 | low viability with and without drug | 0.31 | 0.5 | 0.62 | inactive
